Laboratory results: PMC2660581
No constants are given. Whether binding was seen depends on the method and setting.

The chains behind the UniProt entries cited, without tags or fusion partners. Residues count along the entry.
UniProt O14727, residues 1-92: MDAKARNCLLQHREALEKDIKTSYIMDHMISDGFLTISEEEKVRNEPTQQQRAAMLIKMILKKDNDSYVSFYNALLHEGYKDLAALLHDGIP
UniProt Q9ULZ3, residues 1-94: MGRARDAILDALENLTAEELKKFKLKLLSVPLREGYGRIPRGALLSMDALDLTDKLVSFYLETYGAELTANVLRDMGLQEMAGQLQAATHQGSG

Experiments:
Assay in all cases: two-hybrid; … GAL4 Two-Hybrid System 3, S. cerevisiae AH109 co-transformed with pGBKT7 and pGADT7 fusions; growth on SD/-Ade/-His/-Leu/-Trp, 4 days at 30°C; “each against all” screen (26×26) and later tests with refined constructs
[1] = target: T1, NLRP12 PYD (UniProt P59046)
T1 sequence: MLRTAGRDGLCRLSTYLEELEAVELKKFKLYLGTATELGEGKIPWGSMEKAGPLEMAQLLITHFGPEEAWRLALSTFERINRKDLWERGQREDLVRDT

[2] = target: T2, NLRP10 PYD (UniProt Q86W26)
T2 sequence: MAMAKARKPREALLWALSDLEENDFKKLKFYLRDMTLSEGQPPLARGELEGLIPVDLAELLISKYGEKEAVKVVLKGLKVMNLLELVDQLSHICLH

[3] = target: T3, NLRP7 PYD (UniProt Q8WX94)
T3 sequence: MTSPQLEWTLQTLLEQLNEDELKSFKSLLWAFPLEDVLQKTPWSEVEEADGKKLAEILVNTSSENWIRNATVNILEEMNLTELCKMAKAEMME

[4] = target: T4, NLRP1 CARD (UniProt Q9C000)
T4 sequence: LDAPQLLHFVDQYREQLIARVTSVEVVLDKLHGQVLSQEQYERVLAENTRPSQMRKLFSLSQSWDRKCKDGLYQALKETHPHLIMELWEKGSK

[5] = target: T5, NLRP2 PYD (UniProt Q9NX02)
T5 sequence: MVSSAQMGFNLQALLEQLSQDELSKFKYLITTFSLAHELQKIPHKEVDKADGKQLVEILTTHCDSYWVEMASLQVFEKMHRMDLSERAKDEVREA

[6] = target: T6, NLRP11 PYD (UniProt P59045)
T6 sequence: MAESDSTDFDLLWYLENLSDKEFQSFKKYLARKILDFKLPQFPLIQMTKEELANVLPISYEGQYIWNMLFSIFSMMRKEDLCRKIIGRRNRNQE

[7] = target: T7, NLRP1 PYD (UniProt Q9C000)
T7 sequence: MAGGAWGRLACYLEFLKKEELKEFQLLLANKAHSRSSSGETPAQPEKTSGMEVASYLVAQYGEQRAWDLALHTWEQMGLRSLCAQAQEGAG

[8] = target: APAF1 CARD (UniProt O14727)
[9] = target: NLRC5 CARD (UniProt Q86WI3)

Measured: binding

ASC PYD (from UniProt Q9ULZ3 1-94) (domain or fragment)
not listed: [8] | [9]
no binding: all other assays above

APAF1 CARD (from UniProt O14727 1-92) (domain or fragment)
no binding: [8] | [4] | [7]

B1: NLRC5 CARD (domain or fragment, UniProt Q86WI3 1-98)
chain: MDPVGLQLGNKNLWSCLVRLLTKDPEWLNAKMKFFLPNTDLDSRNETLDPEQRVILQLNKLHVQGSDTWQSFIHCVCMQLEVPLDLEVLLLSTFGYDD
no binding: [9]
